# Test results reported in PubChem BioAssay AID1347423 (Functional Genomics Laboratory (NCATS/FGL), 2020).
# The whole screen tested about 52,000 sequences, of which about 210 (0.4%) were called active.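 How the source made its calls: active means gene whose silencing raises cell survival under the drug, median off-target-corrected z-score across its silencing RNAs 2 or more; inactive means the rest.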 The list shows a part of the results.
# Assay: Resistance to Poly (ADP-Ribose) Polymerase inhibitor: Gene Identification via Genome-wide siRNA Screen
# Conditions: mouse BRCA2 R2336H ES cells, olaparib, CellTiter-Glo viability; active compounds read high
# In short: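 Mouse BRCA2 R2336H ES cells were reverse-transfected with siRNA (20 nM final), treated at 48 h with 500 nM olaparib, and read by CellTiter-Glo after 72 h. Scores: MAD-based z per siRNA, median per gene, seed off-target correction.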
row,Sequence,z-score
1,GCAGAUGUAAAUAGCAAAATT against Apc,inactive: 0.747
2,GGUUCAGAUGGGAAAAAGGTT against Khdrbs2,inactive: -2
3,CGUUUUUGUCUAGUUUGAATT against 2900006F19Rik,inactive: 0.426
4,CCUUUUACUUAGACAUCCUTT against 6.33E+19,inactive: 0.0895
5,GGACUUCAAAGAUAACAACTT against Timm44,inactive: -2.21
6,GGCCAGUUUGACAUUCCUGTT against Mdh1b,inactive: 1.39
7,GGACAUGUGUAAAUAAUCATT against En2,inactive: -1.1
8,CCCAUCUCCUCGAAUAAAUTT against Mtch1,inactive: 1.47
9,GGCAGAUGCUGAAACACUGTT against BC016423,inactive: -1.31
10,GCCUCACAACUCUUACACCTT against Ptprc,inactive: 0.888
11,GGAAAGGAGAAGAGAAAUGTT against Scyl1,inactive: 0.694
12,UGAUCGAGAAUGAACUUACTT against Kb14,inactive: 0.327
13,GGAAGAGAGAUGGAAAAAATT against Gcnt1,inactive: -0.555
14,GCACUCAAAUGGUAGAUUCTT against Socs6,inactive: 1.06
15,GGAGAACUGUGUACGAUGGTT against C230093N12Rik,inactive: -1.1
16,CGCAAAGGAAGAAAUGCUGTT against Klra17,inactive: 0.15
17,GGCUUUUUAUUCAAAUCCCTT against Ky,inactive: -0.147
18,GGAAGAUGAUAACAACAACTT against Kif3c,inactive: 1.8
19,GAAGCAGAACUUGAGCAAGTT against Phgdh,inactive: 1.11
20,GGCCGUGUACAACAACUUCTT against Zfp537,inactive: 0.542
21,GGAGCAGAUACCCUAGCCUTT against Mtx1,inactive: -1
22,CCCGGGAAUAAAUAAAGGCTT against 6720416L17Rik,inactive: 0.105

# Exported with tabs: part of the list above.
row	Sequence	z-score
1	GCAGAUGUAAAUAGCAAAATT against Apc	inactive: 0.747
2	GGUUCAGAUGGGAAAAAGGTT against Khdrbs2	inactive: -2
4	CCUUUUACUUAGACAUCCUTT against 6.33E+19	inactive: 0.0895
6	GGCCAGUUUGACAUUCCUGTT against Mdh1b	inactive: 1.39
7	GGACAUGUGUAAAUAAUCATT against En2	inactive: -1.1
9	GGCAGAUGCUGAAACACUGTT against BC016423	inactive: -1.31
10	GCCUCACAACUCUUACACCTT against Ptprc	inactive: 0.888
11	GGAAAGGAGAAGAGAAAUGTT against Scyl1	inactive: 0.694
12	UGAUCGAGAAUGAACUUACTT against Kb14	inactive: 0.327
13	GGAAGAGAGAUGGAAAAAATT against Gcnt1	inactive: -0.555
14	GCACUCAAAUGGUAGAUUCTT against Socs6	inactive: 1.06
15	GGAGAACUGUGUACGAUGGTT against C230093N12Rik	inactive: -1.1
16	CGCAAAGGAAGAAAUGCUGTT against Klra17	inactive: 0.15
17	GGCUUUUUAUUCAAAUCCCTT against Ky	inactive: -0.147
19	GAAGCAGAACUUGAGCAAGTT against Phgdh	inactive: 1.11
20	GGCCGUGUACAACAACUUCTT against Zfp537	inactive: 0.542
21	GGAGCAGAUACCCUAGCCUTT against Mtx1	inactive: -1
22	CCCGGGAAUAAAUAAAGGCTT against 6720416L17Rik	inactive: 0.105

# Later entries

row,Sequence,z-score
1,GCCGUCAUUUUGCCUCGAUTT against Zswim3,inactive: -0.296
2,GGAGAAGUAUGACAGAAUUTT against 5430425C04Rik,inactive: -1.87
3,CCAGUUUUUCGAGUAUACGTT against Galnt12,inactive: 0.605
4,GGUAGUUGAGGUUUUAUAGTT against 4933434L15Rik,inactive: 0.187
5,GGAUUCUUGGCUUUAAGACTT against 9430023P16Rik,inactive: -0.0156
6,GGAAUACACCAUUUAACAATT against Acbd5,inactive: -0.596
7,CCUCACAAAGCACAAUAUCTT against Sntg1,inactive: 0.304
8,GCGGAACCUGAACAUUCGUTT against Zhx2,inactive: 1.46
9,CCUUCUCCUGAAGAAUUGATT against BC004728,inactive: 3
10,GGCCAGGUACUAUACACAUTT against B930076A02,inactive: 1.46
11,GCACAUGGUGAUUUAUAUATT against Ostn,inactive: 0.147
12,GGUGCAGGCCAUGAUUUACTT against C1qtnf4,inactive: 1.89
13,GGCUCAAUAAAAUGAAGUGTT against Elovl2,inactive: 1.28
14,GGCGGUUAAUGACAAGAACTT against Sdk2,inactive: 0.103
15,GGCAGUGGCCGAAAAGACUTT against Fzd7,inactive: 0.137
16,GGACUACUCGGAUUUAGCUTT against Prss15,inactive: -0.83
17,GGAGAAAAGGAUGUUGUUATT against 2310005P05Rik,inactive: 2.57
18,GGAGACUGCUUUCCUCUACTT against Wnt9a,inactive: 0.479
19,CCAAGUUAGUCUGCGUAUUTT against 2610305D13Rik,inactive: -1.24
20,GGUGAUUUCGGGUAACGAGTT against Ddr1,inactive: -0.0125
21,GGUCAAUGUUCACCAGCCATT against 2410080H04Rik,inactive: -0.983
22,CCUUCGACACCUUACAAGUTT against 2410011G03Rik,inactive: 0.257

row,Sequence,z-score
1,GCUUAGAUAUUUCUUAUGCTT against 2610300B10Rik,inactive: -0.193
2,GGAAAUUGAACAGCGAUUATT against C430014D17Rik,inactive: -1.5
3,GGAUCUGUGUGCUAACAGCTT against 4930550C14Rik,inactive: -0.925
4,GAGAUUUUGUUUGGGUUGUTT against Olfr1126,inactive: 1.16
5,GCAUUGGGUUUAUCAGCAUTT against 6720460F02Rik,inactive: 0.682
6,GGCCCUAUUUUGGAUAACUTT against Tgfb1i1,inactive: 0.356
7,GCUUCUGGUUUUCGGCUAUTT against Sfrs8,inactive: -0.593
8,CCCAAAGGUGAUGUUACCUTT against H2-M3,inactive: -0.73
9,GGAGUUUGAAAGUUCCUUCTT against Dap3,inactive: 0.695
10,GGAUGUCGGCGGUAAAUGATT against 2010110O04Rik,inactive: -0.643
11,CCAUCUUCCUCUUUCCUAUTT against Gpr30,inactive: 0.177
12,GGUAUGACCUAGUGGAGGGTT against Trem1,inactive: 1.47
13,GGUGGCCAUCAAGAAGAUATT against Mapk7,inactive: -0.311
14,GGUCUAGAUUAUGAGCAAUTT against Pcdhga7,inactive: 4.32
15,GCCAUUCUGCCCUACACAATT against Rasa1,inactive: 0.239
16,GCCAGUUUAGGUAAUAAACTT against Socs1,inactive: 0.307
17,CCAUCGUAUAAAUUACCAUTT against Plaa,inactive: 0.0462
18,GGACCAUGCACUUAUGACCTT against 1700013H19Rik,inactive: 0.994
19,GGAGAAGUUAAAGAAGAACTT against Ddx55,inactive: -0.145
20,GGAAUGGUAGCCACUGUUATT against Klrg1,inactive: 2.3
21,GGUUGUCUCUUGAGAAUGATT against Cst10,inactive: -0.951
22,GCUACAACAAGACAAAGUCTT against D1Ertd251e,inactive: 1.08
